Assay: general procedure: solution-phase peptide synthesis; HATU
[1] = late stage modification step, HPLC (Protocol A)
[2] = coupling step, HPLC (Protocol A)
[3] = late stage modification step, hydrochloride salt

N-{(2R,3R)-3-methoxy-3-[(2S)-1-{(3R,4S,5S)-3-methoxy-5-methyl-4-[methyl(L-valyl)amino]heptanoyl}pyrrolidin-2-yl]-2-methylpropanoyl}-L-phenylalanine
step yield (late stage modification step): 94%

N-methyl-L-valyl-N-[(3R,4S,5S)-3-methoxy-1-{(2S)-2-[(1R,2R)-1-methoxy-3-{[(2S)-1-methoxy-1-oxo-3-phenylpropan-2-yl]amino}-2-methyl-3-thioxopropyl]pyrrolidin-1-yl}-5-methyl-1-oxoheptan-4-yl]-N-methyl-L-valinamide
step yield (late stage modification step): 80%
final HPLC purity [1]: >95%

L-isovalyl-N-{(1S,2R)-4-{(2S)-2-[(1R,2R)-3-{[(1S)-1-benzyl-2-methoxy-2-oxoethyl]amino}-1-methoxy-2-methyl-3-oxopropyl]pyrrolidin-1-yl}-2-methoxy-1-[(1S)-1-methylpropyl]-4-oxobutyl}-N-methyl-L-valinamide
step yield (coupling step): 35%

1,2-dimethyl-L-prolyl-N-[(3R,4S,5S)-3-methoxy-1-{(2S)-2-[(1R,2R)-1-methoxy-3-{[(2S)-1-methoxy-1-oxo-3-phenylpropan-2-yl]amino}-2-methyl-3-oxopropyl]pyrrolidin-1-yl}-5-methyl-1-oxoheptan-4-yl]-N-methyl-L-valinamide
step yield (coupling step): 41%
final HPLC purity [2]: 100%

methyl N-{(2R,3R)-3-methoxy-3-[(2S)-1-{(3R,4S,5S)-3-methoxy-5-methyl-4-[methyl(N-{[(2S)-2-methylpiperidin-2-yl]carbonyl}-L valyl)amino]heptanoyl}pyrrolidin-2-yl]-2-methylpropanoyl}-L-phenylalaninate, trifluoroacetic acid salt
final HPLC purity (coupling step, HPLC (Protocol A), TFA salt): >99%
step yield (coupling step, TFA salt): 49%

2-methylalanyl-N-[(3R,4S,5S)-1-{(2S)-2-[(1R,2R)-3-{[(1S)-1-carboxy-2-phenylethyl]amino}-1-methoxy-2-methyl-3-thioxopropyl]pyrrolidin-1-yl}-3-methoxy-5-methyl-1-oxoheptan-4-yl]-N-methyl-L-valinamide, hydrochloride salt
step yield [3]: 71%

2-methylalanyl-N-[(3R,4S,5S)-1-{(2S)-2-[(1R,2R)-3-{[bicyclo[4.2.0]octa-1,3,5-trien-7-yl(carboxy)methyl]amino}-1-methoxy-2-methyl-3-oxopropyl]pyrrolidin-1-yl}-3-methoxy-5-methyl-1-oxoheptan-4-yl]-N-methyl-L-valinamide
step yield (late stage modification step): 57%

2-methylalanyl-N-[(3R,4S,5S)-3-methoxy-1-{(2S)-2-[(1R,2R)-1-methoxy-3-{[(2S)-1-methoxy-1-oxo-3-phenylpropan-2-yl]amino}-2-methyl-3-oxopropyl]pyrrolidin-1-yl}-5-methyl-1-oxoheptan-4-yl]-N-methyl-L-valinamide
step yield (late stage modification step): 65%

N,2-dimethylalanyl-N-{(1S,2R)-4-{(2S)-2-[(1R,2R)-3-{[(1S)-1-benzyl-2-(diethylamino)-2-oxoethyl]amino}-1-methoxy-2-methyl-3-oxopropyl]pyrrolidin-1-yl}-2-methoxy-1-[(1S)-1-methylpropyl]-4-oxobutyl}-N-methyl-L-valinamide, trifluoroacetic acid salt
step yield (late stage modification step, TFA salt): 30%

methyl N-{(2R,3R)-3-[(2S)-1-{(3R,4S,5S)-4-[{N-[(9H-fluoren-9-ylmethoxy)carbonyl]-L-valyl}(methyl)amino]-3-methoxy-5-methylheptanoyl}pyrrolidin-2-yl]-3-methoxy-2-methylpropanoyl}-L-phenylalaninate
step yield (coupling step): 62%
final HPLC purity [2]: >97%

2-methylalanyl-N-[(3R,4S,5S)-3-methoxy-1-{(2S)-2-[(1R,2R)-1-methoxy-3-{[(2S)-1-methoxy-1-oxo-3-phenylpropan-2-yl]amino}-2-methyl-3-thioxopropyl]pyrrolidin-1-yl}-5-methyl-1-oxoheptan-4-yl]-N-methyl-L-valinamide, hydrochloride salt
step yield [3]: 70%

2-methylalanyl-N-[(3R,4S,5S)-3-methoxy-1-{(2S)-2-[(1R,2R)-1-methoxy-2-methyl-3-oxo-3-{[(1-phenylcyclopropyl)methyl]amino}propyl]pyrrolidin-1-yl}-5-methyl-1-oxoheptan-4-yl]-N-methyl-L-valinamide
step yield (late stage modification step): 83%

N^2-[(1-aminocyclopropyl)carbonyl]-N-[(3R,4S,5S)-3-methoxy-1-{(2S)-2-[(1R,2R)-1-methoxy-2-methyl-3-oxo-3-{[(1S)-2-phenyl-1-(1,3-thiazol-2-yl)ethyl]amino}propyl]pyrrolidin-1-yl}-5-methyl-1-oxoheptan-4-yl]-N-methyl-L-valinamide
step yield (coupling step): 34%

N-[(9H-fluoren-9-ylmethoxy)carbonyl]-N,2-dimethylalanyl-N-[(3R,4S,5S)-1-{(2S)-2-[(1R,2R)-2-carboxy-1-methoxypropyl]pyrrolidin-1-yl}-3-methoxy-5-methyl-1-oxoheptan-4-yl]-N-methyl-L-valinamide
step yield (coupling step): 92%

(2S)-N-[(2S)-1-{[(3R,4S,5S)-1-{(2S)-2-[(1R,2R)-3-{[2-(cyclohepta-2,4,6-trien-1-yl)ethyl]amino}-1-methoxy-2-methyl-3-oxopropyl]pyrrolidin-1-yl}-3-methoxy-5-methyl-1-oxoheptan-4-yl](methyl)amino}-3-methyl-1-oxobutan-2-yl]
step yield (late stage modification step): 89% yield
crude HPLC purity (late stage modification step, HPLC Protocol U, hydrochloride salt): 91%

methyl N-{(2R,3R)-3-methoxy-3-[(2S)-1-{(3R,4S,5S)-3-methoxy-5-methyl-4-[methyl(L-valyl)amino]heptanoyl}pyrrolidin-2-yl]-2-methylpropanoyl}-L-phenylalaninate
step yield (late stage modification step): 67%
final HPLC purity [1]: >98%

N-{(2R,3R)-3-methoxy-3-[(2S)-1-{(3R,4S,5S)-3-methoxy-5-methyl-4-[methyl(N-{[(2S)-2-methylpiperidin-2-yl]carbonyl}-L-valyl)amino]heptanoyl}pyrrolidin-2-yl]-2-methylpropanoyl}-L-phenylalanine, trifluoroacetic acid salt
final HPLC purity (late stage modification step, HPLC Protocol U): 98%

2-methyl-L-prolyl-N-[(3R,4S,5S)-1-{(2S)-2-[(1R,2R)-3-{[(1S)-1-carboxy-2-phenylethyl]amino}-1-methoxy-2-methyl-3-oxopropyl]pyrrolidin-1-yl}-3-methoxy-5-methyl-1-oxoheptan-4-yl]-N-methyl-L-valinamide
step yield (late stage modification step): 89%
final HPLC purity [1]: >98%

2-methylalanyl-N-[(3R,4S,5S)-1-{(2S)-2-[(1R,2R)-3-{[(2S)-1-tert-butoxy-1-oxo-3-phenylpropan-2-yl]amino}-1-methoxy-2-methyl-3-oxopropyl]pyrrolidin-1-yl}-3-methoxy-5-methyl-1-oxoheptan-4-yl]-N-methyl-L-valinamide
step yield (late stage modification step): 99%

N-[(9H-fluoren-9-ylmethoxy)carbonyl]-2-methylalanyl-N-[(3R,4S,5S)-3-methoxy-1-{(2S)-2-[(1R,2R)-1-methoxy-3-{[(2S)-1-methoxy-1-oxo-3-phenylpropan-2-yl]amino}-2-methyl-3-oxopropyl]pyrrolidin-1-yl}-5-methyl-1-oxoheptan-4-yl]-N-methyl-L-valinamide
step yield (coupling step, over two steps): 88% over two steps

3-methyl-D-isovalyl-N-{(1S,2R)-4-{(2S)-2-[(1R,2R)-3-{[(1S)-1-benzyl-2-methoxy-2-oxoethyl]amino}-1-methoxy-2-methyl-3-oxopropyl]pyrrolidin-1-yl}-2-methoxy-1-[(1S)-1-methylpropyl]-4-oxobutyl}-N-methyl-L-valinamide
step yield (coupling step): 69%
